PubChem BioAssay AID1259405, NCATS | 2018
The whole screen tested about 50,000 reagents; below is an unselected part. Of all reagents, about 4,000 (8%) were called active. 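Mouse siRNA library applied to hamster cells; one well for each siRNA.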 Unmarked entries are inactive. Reagents against one gene are numbered here.

- Assay: 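Silenced genes that increase secreted GFP made by CHO cells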 (primary screen)
- System: Chinese hamster CHO-K1 ovary cells with stable secreted eGFP expression
- Knock-down reagent: single siRNA against mouse genes, 0.8 pmol siRNA per well (2 µl of 400 nM stock)
- Duration: 3 days
- Detection: 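Percent of the per-plate non-targeting control median for intracellular GFP per well by laser scanning cytometry and for cell viability by ATP luminescence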
- Direction: GFP, % of control: higher = more GFP per well, higher productivity; viability (ATP), % of control: higher = more viable cells (more ATP)
- Hit rule: 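a knock-down is called active if GFP reaches 120% or more of non-targeting control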

gene	reagent	GFP, % of control	viability (ATP), % of control
Chst2 (carbohydrate sulfotransferase 2)	1	105	74.6
Chst2 (carbohydrate sulfotransferase 2)	2	97.3	74.6
Chst2 (carbohydrate sulfotransferase 2)	3	121 (active)	111
Rsl1 (regulator of sex limited protein 1)	1	63	60.7
Rsl1 (regulator of sex limited protein 1)	2	75.1	97.5
Rsl1 (regulator of sex limited protein 1)	3	49.2	57.7
Serpinb8 (serine (or cysteine) peptidase inhibitor, clade B, member 8)	1	112	47
Serpinb8 (serine (or cysteine) peptidase inhibitor, clade B, member 8)	2	53.6	59.7
Serpinb8 (serine (or cysteine) peptidase inhibitor, clade B, member 8)	3	88	100
Gart (phosphoribosylglycinamide formyltransferase)	1	55.7	76
Gart (phosphoribosylglycinamide formyltransferase)	2	42.9	55.5
Gart (phosphoribosylglycinamide formyltransferase)	3	64.2	128
Dspp (dentin sialophosphoprotein)	1	77.1	67.3
Dspp (dentin sialophosphoprotein)	2	89.3	101
Dspp (dentin sialophosphoprotein)	3	97	75.8
Bcl2l1 (BCL2-like 1)	1	41.2	50.6
Bcl2l1 (BCL2-like 1)	2	51.1	67.8
Bcl2l1 (BCL2-like 1)	3	64.6	40.5
Cd84 (CD84 antigen)	1	23.5	23.4
Cd84 (CD84 antigen)	2	87.2	103
Cd84 (CD84 antigen)	3	63.2	77.1
Xcl1 (chemokine (C motif) ligand 1)	1	99.2	26.4
Xcl1 (chemokine (C motif) ligand 1)	2	42.4	24.4
Xcl1 (chemokine (C motif) ligand 1)	3	86	63.3
Fbxo15 (F-box protein 15)	1	106	97.2
Fbxo15 (F-box protein 15)	2	90.6	78.4
Fbxo15 (F-box protein 15)	3	102	71.5
Dusp9 (dual specificity phosphatase 9)	1	100	86.5
Dusp9 (dual specificity phosphatase 9)	2	63	68.7
Pex1 (peroxisomal biogenesis factor 1)	1	107	90.6
Pex1 (peroxisomal biogenesis factor 1)	2	87.2	72.4
Psmc2 (proteasome (prosome, macropain) 26S subunit, ATPase 2)	1	67.9	64.1
Psmc2 (proteasome (prosome, macropain) 26S subunit, ATPase 2)	2	96.3	104
Psmc2 (proteasome (prosome, macropain) 26S subunit, ATPase 2)	3	101	83.9
Nphs2 (nephrosis 2, podocin)	1	72.4	63.6
Nphs2 (nephrosis 2, podocin)	2	67.5	59.5
Tspan4 (tetraspanin 4)	1	109	85.7
Tspan4 (tetraspanin 4)	2	65.4	77.1
Tspan4 (tetraspanin 4)	3	106	67.4
Acd (adrenocortical dysplasia)	1	48.7	57.7
Acd (adrenocortical dysplasia)	2	82.5	74
Acd (adrenocortical dysplasia)	3	78.7	89.3
Mrto4 (mRNA turnover 4, ribosome maturation factor)	1	95.5	79.7
Mrto4 (mRNA turnover 4, ribosome maturation factor)	2	96.5	64.7
Mrto4 (mRNA turnover 4, ribosome maturation factor)	3	45.8	50.6
Kdm2a (lysine (K)-specific demethylase 2A)	1	47.9	65.5
Kdm2a (lysine (K)-specific demethylase 2A)	2	101	77.2
Kdm2a (lysine (K)-specific demethylase 2A)	3	109	94.7
Vps4a (vacuolar protein sorting 4A)	1	89.1	92
Vps4a (vacuolar protein sorting 4A)	2	59.9	79.8
Vps4a (vacuolar protein sorting 4A)	3	40.1	58.4
Smg8 (SMG8 nonsense mediated mRNA decay factor)	1	101	109
Smg8 (SMG8 nonsense mediated mRNA decay factor)	2	85.1	92.1
Smg8 (SMG8 nonsense mediated mRNA decay factor)	3	128 (active)	101
Ubfd1 (ubiquitin family domain containing 1)	1	66.7	66.7
Ubfd1 (ubiquitin family domain containing 1)	2	105	58.6
Ubfd1 (ubiquitin family domain containing 1)	3	82.2	86.5
Usp21 (ubiquitin specific peptidase 21)	1	70	35.9
Usp21 (ubiquitin specific peptidase 21)	2	58.5	50.7
Usp21 (ubiquitin specific peptidase 21)	3	76.1	88.7
Ino80c (INO80 complex subunit C)	1	68.2	94
Ino80c (INO80 complex subunit C)	2	54.1	58.4
Ino80c (INO80 complex subunit C)	3	85.8	107
Yeats4 (YEATS domain containing 4)	1	63.7	92.7
Yeats4 (YEATS domain containing 4)	2	29.2	43.7
Yeats4 (YEATS domain containing 4)	3	32.2	61.4
Plaur (plasminogen activator, urokinase receptor)	1	60.5	42.2
Plaur (plasminogen activator, urokinase receptor)	2	87.7	60.7
Plaur (plasminogen activator, urokinase receptor)	3	75.5	77.5
Chrac1 (chromatin accessibility complex 1)	1	93.8	107
Chrac1 (chromatin accessibility complex 1)	2	110	93.3
Klhdc2 (kelch domain containing 2)	1	84.8	75.6
Klhdc2 (kelch domain containing 2)	2	68	75.3
Klhdc2 (kelch domain containing 2)	3	54.6	41.7
Amacr (alpha-methylacyl-CoA racemase)	1	105	90.5
Amacr (alpha-methylacyl-CoA racemase)	2	40.8	56.5
Amacr (alpha-methylacyl-CoA racemase)	3	61.2	77.9
Crocc (ciliary rootlet coiled-coil, rootletin)	1	42.6	21.3
Crocc (ciliary rootlet coiled-coil, rootletin)	2	71.8	28.3
Crocc (ciliary rootlet coiled-coil, rootletin)	3	125 (active)	90.3
St8sia3 (ST8 alpha-N-acetyl-neuraminide alpha-2,8-sialyltransferase 3)	1	125 (active)	98.9
St8sia3 (ST8 alpha-N-acetyl-neuraminide alpha-2,8-sialyltransferase 3)	2	122 (active)	135
St8sia3 (ST8 alpha-N-acetyl-neuraminide alpha-2,8-sialyltransferase 3)	3	114	79.5
Hrob (homologous recombination factor with OB-fold)	1	51	69.9
Hrob (homologous recombination factor with OB-fold)	2	76.5	88.3
Hrob (homologous recombination factor with OB-fold)	3	136 (active)	89.3

Entries above with an active call:
gene	reagent	GFP, % of control	viability (ATP), % of control
Chst2 (carbohydrate sulfotransferase 2)	3	121 (active)	111
Smg8 (SMG8 nonsense mediated mRNA decay factor)	3	128 (active)	101
Crocc (ciliary rootlet coiled-coil, rootletin)	3	125 (active)	90.3
St8sia3 (ST8 alpha-N-acetyl-neuraminide alpha-2,8-sialyltransferase 3)	1	125 (active)	98.9
St8sia3 (ST8 alpha-N-acetyl-neuraminide alpha-2,8-sialyltransferase 3)	2	122 (active)	135
Hrob (homologous recombination factor with OB-fold)	3	136 (active)	89.3
